# The supplement of paper PMC9135407
# Values joined by “and” are separate entries in the source; they are usually repeats but may differ in a detail not shown here. Identical values can stand only once. Counter-ions that a name gives are not always drawn. ± gives the standard deviation of the averaged measurements. The list shows a part of the results. Baselines shift from plate to plate; read single values as rough.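 Assay uses culture-activated primary human stellate myofibroblasts; lipid droplet recovery indicates inactivation. Measured: proportion of Hoechst-counted cells over a plate-specific Bodipy cutoff, duplicate wells, DMSO and nortriptyline as per-plate negative and positive controls. A hit scores, control-normalized, above the plate's top-tenth-percentile nortriptyline wells or ranks among its three best wells. Final well concentrations not reported.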
# Test system: primary human hepatic stellate cells (donor 1)
# Assay: percent Bodipy-positive cells; higher = more lipid droplet accumulation
# Settings: 48 h
# [1] = library stock concentration: 3.33 mM
# [2] = library stock concentration: 10 mM
# [3] = library stock concentration: 1 mM
# [4] = library stock concentration: 2 mM
# [5] = library stock concentration: 80 uM
# [6] = library stock concentration: 400 uM
structure (smiles),measurement,setting,value
C=C[C@@]1(C)CC(=O)[C@]2(O)[C@@]3(C)[C@@H](O)CCC(C)(C)[C@@H]3[C@H](O)[C@H](OC(C)=O)[C@@]2(C)O1 [Forskolin],percent Bodipy-positive cells,[1],10.7 ± 2%
same,percent Bodipy-positive cells,library stock concentration: 12.2 mM,11.2 ± 8.6%
C=C[C@@]1(C)CC(=O)[C@]2(O)[C@@]3(C)[C@@H](O)CCC(C)(C)[C@@H]3[C@H](O)[C@H](OC(C)=O)[C@@]2(C)O1 [Colforsin],percent Bodipy-positive cells,library stock concentration: 4.9 mM,12.3 ± 2%
same,percent Bodipy-positive cells,[2],41.4 ± 6.1%
CN(Cc1cnc2nc(N)nc(N)c2n1)c1ccc(C(=O)NC(CCC(=O)O)C(=O)O)cc1 (racemic) [Methotrexate(+/-)],percent Bodipy-positive cells,library stock concentration: 4.4 mM,5.75 ± 0.61%
same,percent Bodipy-positive cells,[2],15 ± 6.4%
NC(=O)N1C(=O)/C(=C(\O)c2cccs2)c2cc(Cl)ccc21 [Tenidap],percent Bodipy-positive cells,[2],6.3 ± 2.2%
CCN(CC)CCOC(=O)C(Cc1cccc2ccccc12)CC1CCCO1 (stereo not drawn) [Nafronyl oxalate],percent Bodipy-positive cells,,49.3 ± 1.4%
same,percent Bodipy-positive cells,[2],38.6 ± 25%
CC1(C)S[C@@H]2[C@H](NC(=O)C(C(=O)O)c3ccccc3)C(=O)N2[C@H]1C(=O)O (stereo partly drawn) [Carbenicillin disodium],percent Bodipy-positive cells,[1],13.8 ± 5.1%
same,percent Bodipy-positive cells,library stock concentration: 4.7 mM,3.3 ± 0.17%
same,percent Bodipy-positive cells,[2],32.8% and 12.4%
COc1ccc(-c2nc(-c3ccc(-c4cccc(Cl)c4)o3)[nH]c2-c2ccc(OC)cc2)cc1 [Neurodazine],percent Bodipy-positive cells,[3],52.5 ± 0.96%
same,percent Bodipy-positive cells,[2],15.5 ± 2.3%
CC/C=C\C/C=C\C/C=C\C/C=C\C/C=C\CCCC(=O)O[C@H](COCCCCCCCCCCCCCCCC)COP(=O)([O-])OCC[N+](C)(C)C [Eicosapentaenoyl PAF C-16],percent Bodipy-positive cells,[3],15.6 ± 2.5%
C[C@H](N)[C@H](O)c1cccc(O)c1 [Metaraminol bitartrate],percent Bodipy-positive cells,,30.1 ± 7.6%
same,percent Bodipy-positive cells,library stock concentration: 6.3 mM,28.4 ± 24%
same,percent Bodipy-positive cells,[2],37.9 ± 6.3%
COc1ccc(C(=O)/C(Br)=C\C(=O)O)cc1 [Bromebric acid],percent Bodipy-positive cells,library stock concentration: 7 mM,8.69 ± 5.3%
CCN(CC)CCNC(=O)c1c(C)[nH]c(/C=C2\C(=O)Nc3ccc(F)cc32)c1C.O=C(O)C[C@H](O)C(=O)O,percent Bodipy-positive cells,[4],100%
CCOC(=O)C1=C(COCCN)NC(C)=C(C(=O)OC)C1c1ccccc1Cl.O=S(=O)(O)c1ccccc1 (stereo not drawn) [Amlodipine besylate],percent Bodipy-positive cells,[2],87.4 ± 0.94%
CCCCCC(=O)/C=C/[C@@H]1[C@H](C/C=C\CCCC(=O)O)[C@H](O)C[C@H]1O [8-iso-15-keto Prostaglandin F2.beta.],percent Bodipy-positive cells,[3],8.73 ± 2.4%
"CCCCCCC(=O)SC[C@H](COP(=O)([O-])OCC[N+](C)(C)C)SC(=O)CCCCCC [1,2-bis(heptanoylthio) Glycerophosphocholine]",percent Bodipy-positive cells,[3],8.62 ± 1.9%
Cc1ccccc1OCC(O)CO (stereo not drawn) [Mephenesin],percent Bodipy-positive cells,,23.3 ± 2.1%
same,percent Bodipy-positive cells,[2],31.7 ± 15%
same,percent Bodipy-positive cells,library stock concentration: 11 mM,22.8 ± 3.9%
COc1cc(N2CCN(C)CC2)ccc1Nc1nc(N)c(C(=O)c2c(Cl)cccc2Cl)s1,percent Bodipy-positive cells,[5],18.1 ± 2.9%
same,percent Bodipy-positive cells,[6],14.4 ± 5.2%
same,percent Bodipy-positive cells,[4],29.7 ± 3.6%
same,percent Bodipy-positive cells,[2],79.2 ± 5.4%
CC1=C(CC(=O)O)c2cc(F)ccc2/C1=C\c1ccc(S(C)(=O)=O)cc1 [Sulindac sulfone],percent Bodipy-positive cells,[2],11.5 ± 8.9%
CC(C)N(CCCNC(=O)Nc1ccc(C(C)(C)C)cc1)C[C@H]1O[C@@H](n2cc(Br)c3c(N)ncnc32)[C@H](O)[C@@H]1O,percent Bodipy-positive cells,[1],61.5 ± 7.3%
CS(=O)(=O)c1ccc(-c2cc(Br)sc2-c2ccc(F)cc2)cc1,percent Bodipy-positive cells,[3],16.4 ± 15%
same,percent Bodipy-positive cells,[2],10.4% and 7.87%
O=C1CN(/N=C/c2ccc([N+](=O)[O-])o2)C(=O)N1,percent Bodipy-positive cells,[2],31.4 ± 14%
O=C1CN(/N=C/c2ccc([N+](=O)[O-])o2)C(=O)N1 [Nitrofurantoin],percent Bodipy-positive cells,,27 ± 3.6%
same,percent Bodipy-positive cells,[2],7.46 ± 3.3%
Cc1nc2sccn2c(=O)c1CCN1CCC(=C(c2ccccc2)c2ccc(F)cc2)CC1,percent Bodipy-positive cells,[5],11.1 ± 0.89%
same,percent Bodipy-positive cells,[6],13.3 ± 0.84%
same,percent Bodipy-positive cells,[4],12.7 ± 1.1%
same,percent Bodipy-positive cells,[2],44.5% and 20%
OCCN1CCN(CCCN2c3ccccc3Sc3ccc(Cl)cc32)CC1,percent Bodipy-positive cells,[2],94.8 ± 1.7%
O=C(NCCCNc1nc(Nc2cccc(NC(=O)N3CCCC3)c2)ncc1I)c1cccs1,percent Bodipy-positive cells,[2],94.8 ± 1%
CC(C)(C)C(=O)C(Oc1ccc(Cl)cc1)n1ccnc1 (stereo not drawn) [Climbazole],percent Bodipy-positive cells,[1],14.5 ± 4.5%
same,percent Bodipy-positive cells,library stock concentration: 6.8 mM,7.08 ± 2.1%
same,percent Bodipy-positive cells,[2],38 ± 2.1%
CN[C@@H]1[C@@H](O)[C@@H](O[C@@H]2[C@@H](O)[C@H](O[C@H]3OC(CN)=CC[C@H]3N)[C@@H](N)C[C@H]2N)OC[C@]1(C)O [Sisomicin sulfate],percent Bodipy-positive cells,,40.9 ± 15%
same,percent Bodipy-positive cells,[2],13.4 ± 4.6%
Cc1cc(NS(=O)(=O)c2ccc(N)cc2)no1 [Sulfamethoxazole],percent Bodipy-positive cells,,31.5 ± 4.1%
same,percent Bodipy-positive cells,[1],6.08 ± 1.6%
same,percent Bodipy-positive cells,library stock concentration: 7.9 mM,12 ± 3.5%
same,percent Bodipy-positive cells,[2],13.1% and 30.5%
CCCCCCCCC=CCCCCCCCCOCCOP(=O)([O-])OCC[N+](C)(C)C [Oleyloxyethyl Phosphorylcholine],percent Bodipy-positive cells,[3],11.2 ± 1.1%
COc1cc(C(=O)OCCCN2CCCN(CCCOC(=O)c3cc(OC)c(OC)c(OC)c3)CC2)cc(OC)c1OC.Cl.Cl [Dilazep dihydrochloride],percent Bodipy-positive cells,[2],68.32 ± 0.15%
O=C(c1ccc2c(c1)OCCO2)N1CCCCC1,percent Bodipy-positive cells,[2],51.5 ± 10%
CC1(C)S[C@@H]2[C@H](NC(=O)[C@H](C(=O)O)c3ccsc3)C(=O)N2[C@H]1C(=O)O [Ticarcillin sodium],percent Bodipy-positive cells,,11.8 ± 1.3%
same,percent Bodipy-positive cells,[1],12.6 ± 4.3%
same,percent Bodipy-positive cells,[2],25.8 ± 0.63%
CC1(C)S[C@@H]2[C@H](NC(=O)[C@H](C(=O)O)c3ccsc3)C(=O)N2[C@H]1C(=O)O,percent Bodipy-positive cells,[2],33.9 ± 6.7%
COc1c/c(=C2\C=c3ccccc3=N2)[nH]/c1=C\c1[nH]c(C)cc1C [Obatoclax Mesylate (GX15-070)],percent Bodipy-positive cells,[1],100%
same,percent Bodipy-positive cells,[2],99.41 ± 0.83%
COc1cc(O)c2c(c1)C(=O)c1cc(C)cc(O)c1C2=O [Rheochrysidin],percent Bodipy-positive cells,[1],10.9 ± 0.63%
same,percent Bodipy-positive cells,[2],14.6 ± 0.24%
